The record followed here is PubChem BioAssay AID2685 (National Center for Advancing Translational Sciences (NCATS), 2010).

This test in a line: qHTS Assay for Lipid Storage Modulators in Drosophila S3 Cells.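 For cell number change: cells counted by Cell Tracker Red CMTPX staining in the red channel.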 To be noted: BODIPY lipid droplet fluorescence, 18-24 h; for cell number change: measured here: cell count max response, cells fed with added oleic acid. The method, boiled down:
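Drosophila S3 cells got compounds at several concentrations plus oleic acid (400 uM solution). Laser-scanning cytometry with 488 nm excitation read lipid droplets at 500-530 nm and cells at 575-640 nm. Percent activity was relative to 20 uM Triacsin C.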
Background: Quantitative high-throughput screening tests each substance at several concentrations.

The mark [1] stands for this setting: measured here: lipid fluorescence (Fed channel) AC50, cells fed with added oleic acid.
Where [2] appears, read: measured here: cell number channel AC50, cells fed with added oleic acid.

The list shows a part of the results. Shown are side measurements of this screen, not its main read-out; they come without a call. Compounds called inactive in the main read-out are mostly missing here. Words in brackets tell the shape of the fitted curve; partial curves, single points and poor fits give uncertain potencies.

With `CCN(Cc1cnn(C)c1)C(=O)C1CCC(=O)N(CCc2ccc(OC)cc2)C1` (stereo not drawn), the cell number change was -10.2%.

In general, AC50 refers to the concentration at which the activity in the assay is half-maximal. Lower therefore signals greater potency. On to `COc1cc(F)ccc1S(=O)(=O)NCc1cccnc1`, for which the cell number change came to 11.4%. Further, under setting [1], the half-maximal activity concentration (AC50) was 0.92 µM [rising, full curve, poor fit]. Consider `O=C(CN1CCN(S(=O)(=O)c2ccc(F)cc2)CC1)NCc1cccs1`, for which the cell number change is -15.7%. As to `COC(=O)c1ccc(S(=O)(=O)NCc2ccccn2)n1C`, the cell number change is -14.3%. Also, the concentration at half-maximal activity (AC50) under setting [1] is 0.116 µM [rising, full curve, poor fit]. `Cc1cc([N+](=O)[O-])nn1CC(=O)NCc1ccc(Cl)cc1`: the cell number change was found to be 34.6%. In addition, the half-maximal activity concentration (AC50) under setting [2] was 3.66 µM [rising, full curve]. `O=C(NCC(c1ccco1)N1CCCC1)c1ccc(S(=O)(=O)Nc2ccccc2Cl)cc1` (stereo not drawn): the cell number change is -21.6%. In addition, the AC50 under setting [2] was 0.013 µM [falling, full curve, poor fit]. Besides, the concentration at half-maximal activity (AC50) under setting [1] was 1.84 µM [falling, partial curve].

Regarding `CCN1C(=O)/C(=C/c2ccc(C)s2)SC1=Nc1ccc(OC)cc1`, the cell number change amounted to 40.4%. Besides, the AC50 under setting [2] is 9.2 µM [rising, partial curve, poor fit]. Also, the AC50 under setting [1] is 29.1 µM [rising, single point]. Turning to `CC(=O)Nc1cc2c(cc1C(=O)C(C)C)OCCO2`, the AC50 is, setting by setting: under setting [2], 0.116 µM [falling, full curve, poor fit]; under setting [1], 29.1 µM [rising, single point]. Take `CCn1c(CC(=O)Nc2ccccc2F)nnc1SCC(=O)N1CCN(c2ccccc2)CC1`: the cell number change was found to be 0.688%. Also, under setting [2], the concentration at half-maximal activity (AC50) was 6.51 µM [falling, single point]. Also, the concentration at half-maximal activity (AC50) under setting [1] was 0.058 µM [falling, full curve, poor fit].

Consider `O=C(NC(=S)NNC(=O)c1ccccc1O)c1ccco1`, for which the half-maximal activity concentration (AC50) under setting [1] is 8.2 µM [falling, partial curve]. For `CCN(CC)C(=O)CSc1nnc(-c2cc3ccccc3cc2O)n1CC`, the cell number change was -36.2%. Also, under setting [1], the AC50 is 29.1 µM [falling, single point]. Consider `CSc1nc(-c2ccccc2)nc(N)c1C(C)=O`, for which the cell number change was -28.1%. The AC50 under setting [1] was 6.51 µM [falling, single point].

`CC(C)C(NC(=O)c1ccco1)C(=O)OCC(=O)Nc1ccc(C(N)=O)cc1` (stereo not drawn): under setting [1], the concentration at half-maximal activity (AC50) was 10.3 µM [rising, partial curve]. Consider `O=C(/C=C/c1ccc(Cl)c([N+](=O)[O-])c1)Nc1ccc(N2CCCC2)c(Cl)c1`, for which the cell number change is -52.7%. Besides, under setting [2], the AC50 is 1.84 µM [falling, full curve, poor fit]. For the same compound, the concentration at half-maximal activity (AC50) under setting [1] was 4.11 µM [falling, full curve].

Turning to `O=C(N/N=C/c1cccnc1)c1cccc(NC(=O)c2cccc(Br)c2)c1`, the cell number change was 71.7%. In addition, the AC50 under setting [2] is 16.4 µM [rising, single point]. With `COc1ccccc1Nc1nn2c(=O)c3ccc(C(=O)N4CCCCC4)cc3nc2s1`, the cell number change worked out at 8.02%. The AC50 under setting [1] is 6.51 µM [falling, single point]. As to `CC1CCCC(C)N1C(=O)c1cc(-c2ccco2)on1` (stereo not drawn), the cell number change is -3.33%. Under setting [1], the AC50 is 0.00461 µM [rising, full curve]. As for `COc1cccc(N/C(SCc2ccccc2Cl)=C(/C#N)C(=O)NCc2cccs2)c1`, the cell number change came out at 9.39%. For the same compound, under setting [1], the AC50 is 1.16 µM [falling, single point]. As for `O=C(O)/C=C/C(=O)N1N=C(c2ccco2)CC1c1ccco1` (stereo not drawn), the cell number change is -28.5%. For the same compound, the concentration at half-maximal activity (AC50) under setting [2] is 0.00651 µM [falling, full curve, poor fit]. Also, under setting [1], the concentration at half-maximal activity (AC50) is 14.6 µM [falling, single point]. For `COc1ccc(Cl)cc1NC(=O)CSc1nnc(Cn2c(=O)sc3ccccc32)n1C`, the cell number change was -58.7%. Further, the concentration at half-maximal activity (AC50) under setting [2] was 23.1 µM [falling, partial curve]. The half-maximal activity concentration (AC50) under setting [1] was 14.6 µM [falling, partial curve]. For `Cc1cccc(N/C=C(\[N+](=O)[O-])S(=O)(=O)c2ccccc2)c1C`, the cell number change was -14%. Under setting [1], the AC50 is 32.6 µM [falling, single point].

In the case of `CSC1=NCCN1C(=O)c1ccc(C)cc1`, the cell number change is -0.615%.

Turning to `O=C(c1cncc(Br)c1)N1CCCc2ccccc21`, the cell number change worked out at 12.4%. In addition, the AC50 under setting [1] is 8.2 µM [rising, partial curve].

Regarding `CC(=O)Nc1cccc(Oc2ncnc3scc(-c4ccc(C)cc4)c23)c1`, the cell number change was -23%. Moreover, the AC50 under setting [1] was 9.2 µM [falling, partial curve, poor fit]. As for `CCc1ccccc1NC(=O)Nc1cccc(F)c1`, the cell number change is -17.2%. In addition, the AC50 under setting [1] is 5.17 µM [falling, partial curve].

As for `Cc1cccc(Nc2nc(N)c(C#N)c(CC#N)c2C#N)c1`, the cell number change worked out at 25.4%. Under setting [1], the concentration at half-maximal activity (AC50) was 29.1 µM [rising, single point].

In the case of `O=C(NCC(=O)N(Cc1cccs1)C(C(=O)NC1CCCC1)c1ccco1)c1cccs1` (stereo not drawn), the half-maximal activity concentration (AC50) under setting [2] is 6.51 µM [rising, single point]. With `Cc1cc(C)n(CC(O)CN2c3ccccc3Sc3ccccc32)n1` (stereo not drawn), the cell number change was -24.4%. Also, the AC50 under setting [1] is 1.84 µM [falling, single point]. Regarding `Cc1cc(C)c(S(=O)(=O)N(C)Cc2cnn(C)c2)c(C)c1`, the cell number change came to 13.6%. Also, the AC50 under setting [1] was 6.51 µM [falling, single point].

Turning to `O=C(NCc1ccco1)C1CCN(c2nnc(-n3cccc3)s2)CC1`, the cell number change amounted to 46.8%. For the same compound, the AC50 under setting [2] was 23.1 µM [rising, single point]. As for `O=C(NCCN1CCCC1)c1ccc(Cn2c(=S)[nH]c3ccc(Br)cc3c2=O)cc1`, the cell number change is -0.814%. Moreover, under setting [2], the AC50 was 0.651 µM [falling, single point]. The concentration at half-maximal activity (AC50) under setting [1] is 0.58 µM [falling, partial curve, poor fit]. With `N=C1/C(=C/c2ccco2)C(=O)N=C2SC(CC(=O)N3CCCC3)=NN12`, the AC50 under setting [1] was 2.06 µM [falling, partial curve, poor fit].

With `Cc1cnc(C(=O)Nc2ccccc2-n2cccc2)cn1`, the AC50 under setting [1] is 0.092 µM [falling, full curve, poor fit]. Take `Cc1ccc(OCc2cc(C(=O)N3CC4C[C@@H]5CC3C[C@H](C4)C5)no2)cc1C`: the cell number change was 43.6%. In addition, the AC50 under setting [2] was 29.1 µM [rising, single point]. `COc1cc(CO)ccc1OCc1nnnn1-c1ccc(C)cc1`: the cell number change was -11.2%. Moreover, the AC50 under setting [1] is 5.17 µM [falling, full curve]. Consider `CC1CCCCC1NCc1cccc([N+](=O)[O-])c1` (stereo not drawn), for which the cell number change turned out to be 0.0951%. For the same compound, under setting [1], the concentration at half-maximal activity (AC50) is 0.517 µM [falling, full curve]. For `Cn1c2c(c3ccccc31)CCSC2=O`, the cell number change came to 9.57%. For the same compound, under setting [1], the concentration at half-maximal activity (AC50) is 10.3 µM [rising, partial curve].
